Laboratory results taken from the supplement of paper PMC10849652.
Some of the results follow.

Protein sequences, listed by entry. Tags and fused reporters are not part of them. Lines headed by an entry give the natural chain unless they say otherwise; changes in a name come on top.
UniProt P62873, whole entry, looked up: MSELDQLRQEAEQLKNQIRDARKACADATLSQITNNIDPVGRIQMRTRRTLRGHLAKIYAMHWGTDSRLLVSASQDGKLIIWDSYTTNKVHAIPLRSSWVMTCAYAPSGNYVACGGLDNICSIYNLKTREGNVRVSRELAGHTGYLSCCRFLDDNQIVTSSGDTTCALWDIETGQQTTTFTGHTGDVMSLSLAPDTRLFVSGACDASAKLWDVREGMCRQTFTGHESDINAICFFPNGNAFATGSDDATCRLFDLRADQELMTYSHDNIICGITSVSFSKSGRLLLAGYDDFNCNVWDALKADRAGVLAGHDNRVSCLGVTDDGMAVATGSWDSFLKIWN
UniProt Q14789: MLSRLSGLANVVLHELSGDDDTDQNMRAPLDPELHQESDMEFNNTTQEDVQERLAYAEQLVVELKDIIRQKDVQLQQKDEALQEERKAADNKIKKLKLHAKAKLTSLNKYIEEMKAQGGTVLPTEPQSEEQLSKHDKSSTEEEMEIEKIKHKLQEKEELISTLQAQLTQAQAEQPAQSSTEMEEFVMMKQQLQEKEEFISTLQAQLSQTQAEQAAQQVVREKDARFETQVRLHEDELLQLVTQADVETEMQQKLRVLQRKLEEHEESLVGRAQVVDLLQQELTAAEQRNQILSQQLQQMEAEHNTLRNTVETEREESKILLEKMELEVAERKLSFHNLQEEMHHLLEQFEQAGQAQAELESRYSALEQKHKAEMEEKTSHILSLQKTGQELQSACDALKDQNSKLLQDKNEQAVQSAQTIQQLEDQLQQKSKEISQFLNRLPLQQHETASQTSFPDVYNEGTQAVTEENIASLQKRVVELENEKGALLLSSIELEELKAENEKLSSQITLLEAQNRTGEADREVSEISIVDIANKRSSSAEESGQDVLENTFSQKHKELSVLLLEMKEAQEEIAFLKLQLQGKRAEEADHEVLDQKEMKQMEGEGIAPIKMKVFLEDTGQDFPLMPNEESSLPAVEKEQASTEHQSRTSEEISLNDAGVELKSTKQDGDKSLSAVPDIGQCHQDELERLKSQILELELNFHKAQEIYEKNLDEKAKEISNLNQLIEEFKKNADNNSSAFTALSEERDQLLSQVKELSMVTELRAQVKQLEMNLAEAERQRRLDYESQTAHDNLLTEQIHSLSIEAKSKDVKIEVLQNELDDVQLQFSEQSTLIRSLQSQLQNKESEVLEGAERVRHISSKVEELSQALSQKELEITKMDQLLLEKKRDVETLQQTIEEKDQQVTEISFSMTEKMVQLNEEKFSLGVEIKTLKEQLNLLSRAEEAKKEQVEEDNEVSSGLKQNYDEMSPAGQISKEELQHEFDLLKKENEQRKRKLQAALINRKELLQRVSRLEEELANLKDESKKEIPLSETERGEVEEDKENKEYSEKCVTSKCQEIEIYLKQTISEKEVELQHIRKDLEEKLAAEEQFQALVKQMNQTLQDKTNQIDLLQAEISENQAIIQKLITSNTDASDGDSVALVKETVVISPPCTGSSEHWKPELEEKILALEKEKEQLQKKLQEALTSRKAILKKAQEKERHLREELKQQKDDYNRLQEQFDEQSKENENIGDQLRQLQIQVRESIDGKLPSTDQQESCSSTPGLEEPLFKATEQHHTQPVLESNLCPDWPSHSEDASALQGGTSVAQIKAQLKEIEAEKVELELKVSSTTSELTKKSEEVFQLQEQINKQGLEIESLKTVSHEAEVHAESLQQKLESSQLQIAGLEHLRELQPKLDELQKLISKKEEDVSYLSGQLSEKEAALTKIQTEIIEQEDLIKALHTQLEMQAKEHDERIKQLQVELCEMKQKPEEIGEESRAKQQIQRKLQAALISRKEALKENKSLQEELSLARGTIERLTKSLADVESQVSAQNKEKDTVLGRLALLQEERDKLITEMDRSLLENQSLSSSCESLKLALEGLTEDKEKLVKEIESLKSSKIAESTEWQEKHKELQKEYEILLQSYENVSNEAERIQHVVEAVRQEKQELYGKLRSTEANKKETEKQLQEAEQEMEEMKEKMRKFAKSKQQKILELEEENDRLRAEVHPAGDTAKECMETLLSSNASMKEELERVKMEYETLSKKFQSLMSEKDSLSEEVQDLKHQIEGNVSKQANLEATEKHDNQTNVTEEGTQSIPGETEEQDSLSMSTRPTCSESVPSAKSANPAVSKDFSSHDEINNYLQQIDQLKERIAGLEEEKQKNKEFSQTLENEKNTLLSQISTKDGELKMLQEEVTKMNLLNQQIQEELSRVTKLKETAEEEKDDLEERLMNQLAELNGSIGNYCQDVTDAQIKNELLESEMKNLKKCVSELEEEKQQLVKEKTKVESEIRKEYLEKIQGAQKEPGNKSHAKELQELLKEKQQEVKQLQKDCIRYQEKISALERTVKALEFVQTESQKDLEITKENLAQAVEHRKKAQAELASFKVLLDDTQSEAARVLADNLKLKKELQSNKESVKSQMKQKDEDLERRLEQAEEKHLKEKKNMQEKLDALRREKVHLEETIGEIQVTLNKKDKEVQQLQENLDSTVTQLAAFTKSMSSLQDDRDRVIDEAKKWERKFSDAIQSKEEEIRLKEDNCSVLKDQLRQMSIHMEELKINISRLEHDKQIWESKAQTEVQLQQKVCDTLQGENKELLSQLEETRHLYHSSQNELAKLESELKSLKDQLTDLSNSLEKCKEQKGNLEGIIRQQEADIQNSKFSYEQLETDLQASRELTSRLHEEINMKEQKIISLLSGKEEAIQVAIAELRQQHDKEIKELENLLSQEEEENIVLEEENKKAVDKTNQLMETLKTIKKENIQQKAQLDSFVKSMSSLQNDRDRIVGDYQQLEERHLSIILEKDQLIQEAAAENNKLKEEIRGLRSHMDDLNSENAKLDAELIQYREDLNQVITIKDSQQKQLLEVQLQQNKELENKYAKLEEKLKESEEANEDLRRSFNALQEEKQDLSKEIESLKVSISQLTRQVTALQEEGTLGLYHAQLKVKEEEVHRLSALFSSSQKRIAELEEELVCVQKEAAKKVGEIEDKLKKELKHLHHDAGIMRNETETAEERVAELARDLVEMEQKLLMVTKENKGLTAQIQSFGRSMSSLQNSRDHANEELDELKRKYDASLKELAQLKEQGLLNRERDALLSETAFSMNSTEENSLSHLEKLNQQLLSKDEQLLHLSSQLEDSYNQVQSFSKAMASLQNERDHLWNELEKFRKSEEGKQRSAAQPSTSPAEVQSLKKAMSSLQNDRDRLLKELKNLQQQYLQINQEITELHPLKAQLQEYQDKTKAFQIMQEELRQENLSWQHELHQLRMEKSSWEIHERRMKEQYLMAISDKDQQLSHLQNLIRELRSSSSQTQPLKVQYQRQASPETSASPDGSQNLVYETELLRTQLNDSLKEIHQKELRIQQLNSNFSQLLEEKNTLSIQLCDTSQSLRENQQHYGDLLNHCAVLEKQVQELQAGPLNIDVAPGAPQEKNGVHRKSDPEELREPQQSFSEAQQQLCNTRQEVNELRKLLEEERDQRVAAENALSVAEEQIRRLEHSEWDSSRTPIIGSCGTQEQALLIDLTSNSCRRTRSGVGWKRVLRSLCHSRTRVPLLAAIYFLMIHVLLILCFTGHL
UniProt Q3T8J9: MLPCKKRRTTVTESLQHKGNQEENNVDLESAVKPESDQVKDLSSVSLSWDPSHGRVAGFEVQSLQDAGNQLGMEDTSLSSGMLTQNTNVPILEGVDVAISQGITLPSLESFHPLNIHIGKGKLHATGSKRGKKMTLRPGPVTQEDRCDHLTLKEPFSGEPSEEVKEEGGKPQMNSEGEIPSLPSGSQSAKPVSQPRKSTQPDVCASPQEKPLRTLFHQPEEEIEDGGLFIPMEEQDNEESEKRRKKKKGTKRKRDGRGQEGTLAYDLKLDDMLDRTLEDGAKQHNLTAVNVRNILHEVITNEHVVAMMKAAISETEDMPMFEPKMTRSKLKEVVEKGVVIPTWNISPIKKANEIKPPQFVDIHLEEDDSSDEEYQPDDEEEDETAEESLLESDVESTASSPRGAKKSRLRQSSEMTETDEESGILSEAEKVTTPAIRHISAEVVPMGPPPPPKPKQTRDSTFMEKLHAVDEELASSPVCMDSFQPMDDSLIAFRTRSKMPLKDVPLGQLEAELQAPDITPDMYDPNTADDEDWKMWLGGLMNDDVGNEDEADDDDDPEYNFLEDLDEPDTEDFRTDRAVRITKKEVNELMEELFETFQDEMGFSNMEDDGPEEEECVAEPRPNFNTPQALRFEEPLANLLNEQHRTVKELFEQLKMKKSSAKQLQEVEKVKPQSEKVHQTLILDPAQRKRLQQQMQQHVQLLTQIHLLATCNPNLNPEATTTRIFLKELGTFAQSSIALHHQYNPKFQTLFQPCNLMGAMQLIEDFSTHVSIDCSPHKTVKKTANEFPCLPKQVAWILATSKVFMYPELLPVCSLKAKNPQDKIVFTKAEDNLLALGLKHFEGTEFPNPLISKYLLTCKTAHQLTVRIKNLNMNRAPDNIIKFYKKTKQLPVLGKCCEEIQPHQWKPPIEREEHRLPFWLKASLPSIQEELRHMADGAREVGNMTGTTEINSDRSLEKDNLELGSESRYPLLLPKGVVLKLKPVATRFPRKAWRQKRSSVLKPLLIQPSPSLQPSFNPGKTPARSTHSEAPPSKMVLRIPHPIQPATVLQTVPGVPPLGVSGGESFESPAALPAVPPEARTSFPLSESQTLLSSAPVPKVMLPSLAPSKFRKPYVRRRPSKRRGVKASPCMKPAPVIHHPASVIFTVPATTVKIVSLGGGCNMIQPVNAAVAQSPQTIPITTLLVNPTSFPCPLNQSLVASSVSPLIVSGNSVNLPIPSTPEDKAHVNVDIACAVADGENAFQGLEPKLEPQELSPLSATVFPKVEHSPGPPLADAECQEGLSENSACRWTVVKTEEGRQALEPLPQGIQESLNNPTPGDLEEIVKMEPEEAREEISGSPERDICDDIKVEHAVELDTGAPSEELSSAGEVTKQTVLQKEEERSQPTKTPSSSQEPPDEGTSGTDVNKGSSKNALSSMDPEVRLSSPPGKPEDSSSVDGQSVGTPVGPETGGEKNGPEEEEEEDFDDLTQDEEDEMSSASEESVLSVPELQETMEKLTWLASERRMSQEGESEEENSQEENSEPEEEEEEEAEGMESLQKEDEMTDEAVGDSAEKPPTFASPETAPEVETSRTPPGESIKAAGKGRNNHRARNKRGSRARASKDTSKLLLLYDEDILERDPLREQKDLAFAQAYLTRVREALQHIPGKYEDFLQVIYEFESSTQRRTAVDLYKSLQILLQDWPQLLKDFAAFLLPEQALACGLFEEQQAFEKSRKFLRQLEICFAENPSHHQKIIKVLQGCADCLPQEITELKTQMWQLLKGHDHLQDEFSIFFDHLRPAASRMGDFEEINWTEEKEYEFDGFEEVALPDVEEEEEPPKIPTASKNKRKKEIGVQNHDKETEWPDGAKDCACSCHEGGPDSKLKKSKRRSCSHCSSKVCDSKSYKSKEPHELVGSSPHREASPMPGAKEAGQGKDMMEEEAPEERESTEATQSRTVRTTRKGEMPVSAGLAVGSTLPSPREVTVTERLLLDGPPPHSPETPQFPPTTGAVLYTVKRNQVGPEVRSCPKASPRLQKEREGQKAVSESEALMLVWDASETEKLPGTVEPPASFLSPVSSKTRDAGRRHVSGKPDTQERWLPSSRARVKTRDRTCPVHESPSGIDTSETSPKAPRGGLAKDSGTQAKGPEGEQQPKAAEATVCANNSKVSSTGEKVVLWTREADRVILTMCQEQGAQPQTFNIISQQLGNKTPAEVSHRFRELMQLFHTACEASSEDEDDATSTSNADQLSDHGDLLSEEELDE
UniProt P50148, whole entry, looked up: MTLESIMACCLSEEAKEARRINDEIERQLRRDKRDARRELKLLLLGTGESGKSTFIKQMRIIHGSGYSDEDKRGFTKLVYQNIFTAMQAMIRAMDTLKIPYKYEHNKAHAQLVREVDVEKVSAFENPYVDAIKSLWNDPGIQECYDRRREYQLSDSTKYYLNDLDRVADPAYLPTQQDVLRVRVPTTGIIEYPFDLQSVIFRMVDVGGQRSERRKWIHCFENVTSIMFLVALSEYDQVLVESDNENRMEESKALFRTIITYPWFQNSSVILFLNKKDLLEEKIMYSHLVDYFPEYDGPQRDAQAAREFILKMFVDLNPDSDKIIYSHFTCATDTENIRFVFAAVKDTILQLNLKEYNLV
UniProt O60547: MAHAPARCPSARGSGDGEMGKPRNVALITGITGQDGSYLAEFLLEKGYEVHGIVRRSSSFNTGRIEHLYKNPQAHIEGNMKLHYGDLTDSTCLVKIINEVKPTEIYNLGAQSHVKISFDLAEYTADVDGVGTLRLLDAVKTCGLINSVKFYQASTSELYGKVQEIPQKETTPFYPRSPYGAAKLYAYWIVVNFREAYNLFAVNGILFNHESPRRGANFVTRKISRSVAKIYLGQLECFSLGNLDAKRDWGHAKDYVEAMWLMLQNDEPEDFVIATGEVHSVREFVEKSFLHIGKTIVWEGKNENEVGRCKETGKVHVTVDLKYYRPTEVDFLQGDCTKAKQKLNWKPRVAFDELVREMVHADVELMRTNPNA

compound: Cc1sc2c(c1C)C(c1ccc(Cl)cc1)=N[C@@H](CC(=O)OC(C)(C)C)c1nnc(C)n1-2; assay: log2 fold change, soluble protein after heating vs DMSO (PISA); higher = thermal stabilisation; K562 lysate, 10 uM; active = over 0.2 and 3.5 SD of the protein, either way, in both replicates (recomputed)
How it was run: (§1)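 K562 pellets were dounce-homogenised in PBS pH 7.4 with 1 mM MgCl2, and the crude extract at 1 mg/mL protein was treated with 10 μM compound for 30 min. Aliquots were heated for 3 min across 48°C-58°C, pooled, and brought to 0.5% NP-40 at 4°C; soluble protein was the supernatant after 21,000xg for 90 min. Soluble protein was quantified by TMTpro 16plex LC-MS/MS with channel sums equalised, and reported as log2 fold change in thermal stability against DMSO controls, with values from duplicates.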

Target | log2 fold change
GOLGA7 (UniProt Q7Z5G4) | inactive: -0.069
GLMN (UniProt Q92990) | inactive: -0.044
GOT1 (UniProt P17174) | inactive: -0.006
GMIP (UniProt Q9P107) | inactive: -0.018
GOLPH3 (UniProt Q9H4A6) | inactive: -0.089
GPN1 isoform 5 (UniProt Q9HCN4) | inactive: 0.03
GPATCH1 (UniProt Q9BRR8) | inactive: 0.055
GNL3 (UniProt Q9BVP2) | inactive: -0.023
GLIPR2 (UniProt Q9H4G4) | inactive: 0.059
GMPPA (UniProt Q96IJ6) | inactive: 0.051
GORAB (UniProt Q5T7V8) | inactive: -0.034
GPRIN1 (UniProt Q7Z2K8) | inactive: -0.057
GNB1 (UniProt P62873) | inactive: 0.069
GIGYF1 (UniProt O75420) | inactive: -0.012
GLUD2 (UniProt P49448) | inactive: 0.019
GOLGB1 (UniProt Q14789) | inactive: -0.009

compound: c1ccc([C@@H]2C[C@H]2NC2CCNCC2)cc1; assay: as above
How it was run: as §1

Target | log2 fold change
GGA2 (UniProt Q9UJY4) | inactive: 0.032
GPHN isoform 2 (UniProt Q9NQX3) | inactive: -0.037
GINS4 (UniProt Q9BRT9) | inactive: 0.031
GOLIM4 (UniProt O00461) | inactive: 0.09
GIPC1 (UniProt O14908) | inactive: 0.039
GPBP1 isoform 2 (UniProt Q86WP2) | inactive: -0.029
GINS3 (UniProt Q9BRX5) | inactive: 0.001
GON4L (UniProt Q3T8J9) | active: 0.466
GNE isoform 2 (UniProt Q9Y223) | inactive: 0.06
GPS2 (UniProt Q13227) | inactive: 0.021
GPR89A (UniProt B7ZAQ6) | inactive: 0.012
GOLGA3 (UniProt Q08378) | inactive: 0
GP1BB isoform 2 (UniProt P13224) | inactive: 0.023
GMPS (UniProt P49915) | inactive: 0.088
GNA11 (UniProt P29992) | inactive: 0.004
GNAQ (UniProt P50148) | inactive: 0.006
GGCX (UniProt P38435) | inactive: 0.142
GOSR2 isoform 2 (UniProt O14653) | inactive: 0.03
GMDS (UniProt O60547) | inactive: 0.005
GNPTG (UniProt Q9UJJ9) | inactive: -0.029

Target | log2 fold change
GNPDA1 (UniProt P46926) | inactive: -0.026
GOT2 (UniProt P00505) | inactive: 0.006
GOLT1B (UniProt Q9Y3E0) | inactive: 0.066
GOLGA7 (UniProt Q7Z5G4) | inactive: 0.01
GLMN (UniProt Q92990) | inactive: 0.009
GOT1 (UniProt P17174) | inactive: -0.011
GMIP (UniProt Q9P107) | inactive: 0.054
GOLPH3 (UniProt Q9H4A6) | inactive: 0.008
GPN1 isoform 5 (UniProt Q9HCN4) | inactive: 0.032
GPATCH1 (UniProt Q9BRR8) | inactive: 0.178
GNL3 (UniProt Q9BVP2) | inactive: 0.041
GLIPR2 (UniProt Q9H4G4) | inactive: 0.045
GMPPA (UniProt Q96IJ6) | inactive: 0.028
GORAB (UniProt Q5T7V8) | inactive: 0.06
GPRIN1 (UniProt Q7Z2K8) | inactive: -0.021
GNB1 (UniProt P62873) | inactive: -0.329
GIGYF1 (UniProt O75420) | inactive: -0.079
GLUD2 (UniProt P49448) | inactive: 0.022
GOLGB1 (UniProt Q14789) | inactive: 0.016
